{
  "source": "PubChem BioAssay AID445",
  "about": "(National Center for Advancing Translational Sciences (NCATS), 2006)",
  "experiment": "IkB Signaling",
  "conditions": "ABC-DLBCL IkBa-CBG/CBR dual luciferase ratio (green luciferase fused to IkBa over red control in OCI-Ly3 lymphoma cells), 4 h",
  "method_in_brief": "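Luminescence ratio of IκBα-fused green versus native red beetle luciferase in OCI-Ly3 cells, 4 h post-doxycycline with compound; red signal alone, scaled from basal (0%) to zero light (-100%), flagged nonspecific or cytotoxic effects.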",
  "key": {"[1]": {"conditions": "measured here: control luc red channel unless noted"}, "[2]": {"conditions": "measured here: IkB-luc green channel"}, "[3]": {"conditions": "measured here: control luc red channel"}},
  "note": "This is one part of the list. Further columns of the screen follow, without active or inactive calls. Compounds called inactive in the main read-out are mostly missing here. The note in brackets gives the kind of curve behind each potency; many fits are weak.",
  "data": [
    {"compound": "CCCn1ccc2c(OCC(=O)NCc3ccc(C)cc3)cccc2c1=O", "values": [
      {"measurement": "AC50", "setting": "[1]", "value": "1.26 µM [falling, partial curve, poor fit]"}
    ]},
    {"compound": "Cc1cccc(NC(=O)c2ccc(N(Cc3ccccc3)S(C)(=O)=O)cc2)c1", "values": [
      {"measurement": "AC50", "setting": "[1]", "value": "15.8 µM [falling, partial curve]"}
    ]},
    {"compound": "CCN(CCCNC(=O)c1cc2c(=O)n(C)c3ccccc3c2s1)Cc1ccccc1", "values": [
      {"measurement": "AC50", "setting": "[1]", "value": "20 µM [falling, partial curve]"}
    ]},
    {"compound": "Cc1ccc2c(c1)C(c1ccc(F)cc1)N(C(=O)COc1ccc(Cl)cc1Cl)CC(=O)N2", "note": "(stereo unspecified)", "values": [
      {"measurement": "AC50", "setting": "[1]", "value": "10 µM [falling, partial curve]"}
    ]},
    {"compound": "Cc1cc2ncn(CCCCOc3ccccc3)c2cc1C", "values": [
      {"measurement": "AC50", "setting": "[1]", "value": "39.8 µM [falling, single point]"}
    ]},
    {"compound": "Cc1ccccc1COC(=O)c1nn(-c2ccccc2)nc1N", "values": [
      {"measurement": "AC50", "setting": "[1]", "value": "0.631 µM [rising, full curve]"}
    ]},
    {"compound": "Cc1ccc(OCc2nnc(SCC(=O)Nc3ccc4c(c3)OCCO4)n2Cc2ccco2)cc1", "values": [
      {"measurement": "AC50", "setting": "[1]", "value": "25.1 µM [falling, partial curve]"}
    ]},
    {"compound": "Cc1nn(CC(=O)NC2CCC(C)CC2)c(=O)c2c1sc1ccccc12", "note": "(stereo unspecified)", "values": [
      {"measurement": "AC50", "setting": "[1]", "value": "15.8 µM [falling, single point]"}
    ]},
    {"compound": "CCn1cc2nc(SCC(=O)Nc3cc(OC)cc(OC)c3)n(Cc3ccc(Cl)cc3)c(=O)c2n1", "values": [
      {"measurement": "AC50", "setting": "[1]", "value": "3.98 µM [falling, full curve]"}
    ]},
    {"compound": "Cc1ccc2oc(-c3ccc(NC(=O)CCC(=O)O)cc3)nc2c1", "values": [
      {"measurement": "AC50", "setting": "[1]", "value": "1.58 µM [falling, full curve]"}
    ]},
    {"compound": "Nc1ncn([C@H]2O[C@@H](CO)[C@@H](O)[C@@H]2O)c(=O)n1", "values": [
      {"measurement": "AC50", "setting": "[2]", "value": "1.58 µM [rising, partial curve]"},
      {"measurement": "AC50", "setting": "[3]", "value": "10 µM [falling, partial curve]"}
    ]},
    {"compound": "CCOc1ccc(NC(=O)c2sc3nc4n(c(=O)c3c2C)CCC4)cc1", "values": [
      {"measurement": "AC50", "setting": "[1]", "value": "15.8 µM [falling, partial curve, poor fit]"}
    ]},
    {"compound": "Cc1nn(Cc2ccc(Cl)c(Cl)c2)c(C)c1NC(=O)c1cc(CC(C)C)on1", "values": [
      {"measurement": "AC50", "setting": "[1]", "value": "15.8 µM [falling, partial curve]"}
    ]},
    {"compound": "Cc1cccc(CN2C(=O)c3ccccc3Sc3ccc(C(=O)NC4CCCCC4)cc32)c1", "values": [
      {"measurement": "AC50", "setting": "[1]", "value": "3.16 µM [falling, full curve]"}
    ]},
    {"compound": "CNc1ncnc2ccc(-c3cccc(NS(C)(=O)=O)c3)cc12", "values": [
      {"measurement": "AC50", "setting": "[2]", "value": "5.01 µM [rising, partial curve]"},
      {"measurement": "AC50", "setting": "[3]", "value": "3.16 µM [rising, partial curve]"}
    ]},
    {"compound": "CC(C)(C)c1ccc(C(=O)NCC(c2cccnc2)N2CCc3ccccc3C2)cc1", "note": "(stereo unspecified)", "values": [
      {"measurement": "AC50", "setting": "[1]", "value": "0.02 µM [rising, full curve]"}
    ]},
    {"compound": "O=C(Nc1ccc2nc(SCC(=O)N3CCOCC3)sc2c1)c1cccc(Br)c1", "values": [
      {"measurement": "AC50", "setting": "[1]", "value": "5.01 µM [falling, partial curve]"}
    ]},
    {"compound": "CCN(C(=O)C1CCN(S(=O)(=O)c2cc(Br)cc3c2N(C(C)=O)CC3)CC1)c1cccc(C)c1", "values": [
      {"measurement": "AC50", "setting": "[1]", "value": "25.1 µM [falling, partial curve]"}
    ]},
    {"compound": "CCC(=O)C1=C(c2ccc(F)cc2)N(C(=O)CC)n2c(nnc2-c2ccc(OC)cc2)S1", "values": [
      {"measurement": "AC50", "setting": "[1]", "value": "2.51 µM [falling, full curve]"}
    ]},
    {"compound": "COc1ccc(-c2cnc(C)o2)cc1S(=O)(=O)Nc1ccc(NC(C)=O)cc1", "values": [
      {"measurement": "AC50", "setting": "[1]", "value": "5.01 µM [rising, full curve, poor fit]"}
    ]},
    {"compound": "Cn1c(=O)oc2cc(S(=O)(=O)CCC(=O)N3CCN(c4ccccc4F)CC3)ccc21", "values": [
      {"measurement": "AC50", "setting": "[1]", "value": "3.16 µM [falling, single point]"}
    ]},
    {"compound": "O=C(CCS(=O)(=O)c1ccc(Br)cc1)Nc1ccc(F)cc1F", "values": [
      {"measurement": "AC50", "setting": "[1]", "value": "39.8 µM [falling, single point]"}
    ]},
    {"compound": "Cc1ccc(-c2nc3ncccn3c2Nc2ccc3c(c2)OCCO3)cc1", "values": [
      {"measurement": "AC50", "setting": "[1]", "value": "10 µM [falling, partial curve]"}
    ]},
    {"compound": "CCc1ccc(CNc2ccc3c(c2)ncn3C(C)(C)C)cc1", "values": [
      {"measurement": "AC50", "setting": "[1]", "value": "7.94 µM [rising, partial curve, poor fit]"}
    ]},
    {"compound": "O=C1CC(c2nc(-c3ccccc3)no2)CN1c1ccccc1", "note": "(stereo unspecified)", "values": [
      {"measurement": "AC50", "setting": "[1]", "value": "10 µM [falling, partial curve]"}
    ]},
    {"compound": "CCOc1ccc(N2CC(c3nc4ccccc4n3CCOc3ccccc3OC)CC2=O)cc1", "note": "(stereo unspecified)", "values": [
      {"measurement": "AC50", "setting": "[1]", "value": "31.6 µM [falling, single point]"}
    ]},
    {"compound": "CCc1cc(=O)oc2cc(C)cc(O)c12", "values": [
      {"measurement": "AC50", "setting": "[1]", "value": "3.98 µM [rising, partial curve]"}
    ]},
    {"compound": "Cc1ccc(-c2nn3c(C)nnc3s2)cc1NC(=O)c1ccc(OC(C)C)cc1", "values": [
      {"measurement": "AC50", "setting": "[1]", "value": "15.8 µM [falling, partial curve]"}
    ]},
    {"compound": "N#C/C(=C\\NC(=S)c1ccncc1)c1nc2ccccc2s1", "values": [
      {"measurement": "AC50", "setting": "[1]", "value": "0.316 µM [falling, full curve]"}
    ]},
    {"compound": "CCOc1ccc(CCNC(=O)CS(=O)(=O)Cc2nc(-c3ccc(OC)cc3)oc2C)cc1", "values": [
      {"measurement": "AC50", "setting": "[1]", "value": "12.6 µM [falling, partial curve]"}
    ]},
    {"compound": "COc1ccc(-c2nc(CSCC(=O)N3CCN(c4cc(Cl)ccc4C)CC3)c(C)o2)cc1", "values": [
      {"measurement": "AC50", "setting": "[1]", "value": "15.8 µM [falling, partial curve]"}
    ]},
    {"compound": "Cc1ccc(C(C)C)c(OCC(O)CN2CCN(c3ccccc3F)CC2)c1", "note": "(stereo unspecified)", "values": [
      {"measurement": "AC50", "setting": "[1]", "value": "31.6 µM [falling, single point]"}
    ]},
    {"compound": "CCOc1ccc(CCNC(=O)CN2C(=O)COc3ccc(S(=O)(=O)N4CCCC4)cc32)cc1", "values": [
      {"measurement": "AC50", "setting": "[1]", "value": "20 µM [falling, partial curve]"}
    ]},
    {"compound": "Cc1cccc(-c2nc(C)c(CCNC(=O)C(=O)Nc3ccccc3C#N)s2)c1", "values": [
      {"measurement": "AC50", "setting": "[1]", "value": "0.631 µM [rising, partial curve, poor fit]"}
    ]},
    {"compound": "Cc1[nH]nc2c1C(C1CC=CCC1)C(C#N)=C(N)O2", "note": "(stereo unspecified)", "values": [
      {"measurement": "AC50", "setting": "[1]", "value": "7.94 µM [falling, full curve]"}
    ]},
    {"compound": "Cc1ccc2[nH]c(=O)c(CN(Cc3ccc4c(c3)OCO4)Cc3nnnn3C3CCCC3)cc2c1", "values": [
      {"measurement": "AC50", "setting": "[1]", "value": "31.6 µM [falling, partial curve]"}
    ]},
    {"compound": "COc1ccc(Cl)cc1S(=O)(=O)NCc1ccc2c(c1)CCN2C(=O)c1cccc(C)c1", "values": [
      {"measurement": "AC50", "setting": "[1]", "value": "25.1 µM [falling, partial curve]"}
    ]},
    {"compound": "CCOC(=O)c1ccc(N2C(=O)c3n[nH]c(-c4ccco4)c3C2c2cccc(OC)c2)cc1", "note": "(stereo unspecified)", "values": [
      {"measurement": "AC50", "setting": "[1]", "value": "15.8 µM [falling, partial curve]"}
    ]},
    {"compound": "COCCCNC(=O)c1ccc(-c2nc(CS(=O)(=O)c3ccc(C)cc3)c(C)o2)cc1", "values": [
      {"measurement": "AC50", "setting": "[1]", "value": "0.126 µM [rising, full curve, poor fit]"}
    ]}
  ]
}
